For at least one compound, name, drawing or mass did not settle the structure.
Assays:
Format in all cases: cell-based
GIRK2 & GIRK4 = target: T1, GIRK2 & GIRK4 (Homo sapiens, UniProt P48051+P48544); assay: Effect of retigabine on cloned potassium channels, two-electrode voltage clamp; conditions: GIRK2 & GIRK4, Xenopus oocytes
T1 construct: expressed in transfected cells; host or cells: Xenopus oocytes (cRNA injection)
T1 sequence (P48051 1-423): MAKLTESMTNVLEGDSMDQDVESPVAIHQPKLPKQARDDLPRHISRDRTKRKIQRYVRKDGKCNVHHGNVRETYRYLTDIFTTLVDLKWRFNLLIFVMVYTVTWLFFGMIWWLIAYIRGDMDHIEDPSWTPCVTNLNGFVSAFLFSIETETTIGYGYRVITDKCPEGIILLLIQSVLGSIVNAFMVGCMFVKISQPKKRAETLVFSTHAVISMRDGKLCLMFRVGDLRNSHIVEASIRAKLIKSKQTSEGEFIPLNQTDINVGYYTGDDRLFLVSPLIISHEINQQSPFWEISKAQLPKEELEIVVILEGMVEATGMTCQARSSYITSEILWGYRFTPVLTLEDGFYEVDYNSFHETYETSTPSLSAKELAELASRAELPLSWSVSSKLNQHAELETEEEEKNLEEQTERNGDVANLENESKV
T1 sequence (P48544 1-419): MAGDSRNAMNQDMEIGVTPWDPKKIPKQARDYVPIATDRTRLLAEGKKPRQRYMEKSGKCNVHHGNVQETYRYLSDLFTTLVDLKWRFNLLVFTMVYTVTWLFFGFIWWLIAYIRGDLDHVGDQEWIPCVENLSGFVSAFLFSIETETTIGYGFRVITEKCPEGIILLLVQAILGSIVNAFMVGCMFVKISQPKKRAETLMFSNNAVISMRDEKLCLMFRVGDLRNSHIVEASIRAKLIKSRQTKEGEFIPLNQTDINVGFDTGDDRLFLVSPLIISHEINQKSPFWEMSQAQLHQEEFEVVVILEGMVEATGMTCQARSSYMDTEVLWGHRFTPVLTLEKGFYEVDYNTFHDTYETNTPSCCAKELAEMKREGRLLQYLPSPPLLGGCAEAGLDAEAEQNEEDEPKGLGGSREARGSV

Kir3.2 (GIRK2) = target: T2, Kir3.2 (GIRK2) (Homo sapiens, UniProt P48051); assay: as above; conditions: Xenopus oocytes
T2 construct: expressed in transfected cells; host or cells: Xenopus oocytes (cRNA injection)
T2 sequence (P48051 1-423): T1 sequence (P48051 1-423)

Kir2.2 (IRK2) = target: T3, Kir2.2 (IRK2) (Homo sapiens, UniProt Q14500); assay: as above; conditions: Xenopus oocytes
T3 construct: expressed in transfected cells; host or cells: Xenopus oocytes (cRNA injection)
T3 sequence (Q14500 1-433): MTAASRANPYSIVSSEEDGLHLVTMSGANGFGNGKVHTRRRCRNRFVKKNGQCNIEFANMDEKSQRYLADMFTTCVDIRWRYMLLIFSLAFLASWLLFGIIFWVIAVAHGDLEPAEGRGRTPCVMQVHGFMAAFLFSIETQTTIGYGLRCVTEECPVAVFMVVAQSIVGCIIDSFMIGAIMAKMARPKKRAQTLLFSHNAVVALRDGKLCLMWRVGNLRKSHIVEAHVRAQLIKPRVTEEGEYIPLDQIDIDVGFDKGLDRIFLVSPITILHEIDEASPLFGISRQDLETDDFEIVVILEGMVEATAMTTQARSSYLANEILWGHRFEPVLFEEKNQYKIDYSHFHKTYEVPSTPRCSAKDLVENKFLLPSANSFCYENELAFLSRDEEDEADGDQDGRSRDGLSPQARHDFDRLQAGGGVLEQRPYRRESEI

TWIK1 = target: T4, TWIK1 (Homo sapiens, UniProt O00180); assay: as above; conditions: TWIK1, Xenopus oocytes
T4 construct: expressed in transfected cells; host or cells: Xenopus oocytes (cRNA injection)
T4 sequence (O00180 1-336): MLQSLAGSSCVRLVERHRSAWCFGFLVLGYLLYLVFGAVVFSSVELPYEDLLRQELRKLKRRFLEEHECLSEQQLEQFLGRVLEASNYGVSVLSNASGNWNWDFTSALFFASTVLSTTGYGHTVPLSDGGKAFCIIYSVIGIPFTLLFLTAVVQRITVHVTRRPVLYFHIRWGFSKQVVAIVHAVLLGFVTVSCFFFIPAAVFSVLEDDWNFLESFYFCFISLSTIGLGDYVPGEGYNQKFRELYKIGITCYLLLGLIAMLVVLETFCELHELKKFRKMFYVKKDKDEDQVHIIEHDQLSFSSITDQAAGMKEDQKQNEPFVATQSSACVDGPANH

[1] = target: T5, ATP-dependent potassium channel (Kir6.2) (Homo sapiens, UniProt Q14654); assay: Effect of retigabine on potassium channels; conditions: expression system and concentration not given
T5 sequence (Q14654 1-390): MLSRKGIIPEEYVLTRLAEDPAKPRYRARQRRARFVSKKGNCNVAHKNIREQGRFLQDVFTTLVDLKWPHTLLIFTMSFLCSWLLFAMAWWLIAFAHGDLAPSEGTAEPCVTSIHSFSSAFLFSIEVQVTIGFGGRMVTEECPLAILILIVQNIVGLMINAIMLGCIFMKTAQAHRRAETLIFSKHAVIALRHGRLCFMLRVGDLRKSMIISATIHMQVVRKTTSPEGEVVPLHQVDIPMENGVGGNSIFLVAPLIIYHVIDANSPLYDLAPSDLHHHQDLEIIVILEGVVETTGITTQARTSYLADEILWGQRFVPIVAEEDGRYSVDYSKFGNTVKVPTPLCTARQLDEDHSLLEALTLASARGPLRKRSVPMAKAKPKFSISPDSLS

Kir3.3 (GIRK3) = target: T6, Kir3.3 (GIRK3) (Homo sapiens, UniProt Q92806); assay: Effect of retigabine on cloned potassium channels, two-electrode voltage clamp; conditions: Xenopus oocytes
T6 construct: expressed in transfected cells; host or cells: Xenopus oocytes (cRNA injection)
T6 sequence (Q92806 1-393): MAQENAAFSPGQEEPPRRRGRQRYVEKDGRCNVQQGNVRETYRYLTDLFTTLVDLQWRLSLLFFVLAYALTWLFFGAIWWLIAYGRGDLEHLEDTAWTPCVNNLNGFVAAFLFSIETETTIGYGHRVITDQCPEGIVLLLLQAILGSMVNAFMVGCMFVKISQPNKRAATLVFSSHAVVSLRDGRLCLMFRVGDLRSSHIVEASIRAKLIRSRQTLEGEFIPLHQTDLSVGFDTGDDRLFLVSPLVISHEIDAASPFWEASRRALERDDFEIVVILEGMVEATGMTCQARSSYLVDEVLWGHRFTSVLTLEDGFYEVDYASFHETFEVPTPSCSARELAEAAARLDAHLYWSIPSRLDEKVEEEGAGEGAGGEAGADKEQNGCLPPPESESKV

CCOC(=O)Nc1ccc(NCc2ccc(F)cc2)cc1N [retigabine, 2-amino-4-(4-fluorobenzylamino)-1-ethoxycarbonyl-aminobenzene]
no effect: Effect of retigabine on the channel [1]
No effect: Effect of 10 μM of Retigabine (GIRK2 & GIRK4) | Effect of 10 μM of Retigabine (Kir3.2 (GIRK2)) | Effect of 10 μM of Retigabine (Kir2.2 (IRK2)) | Effect of 10 μM of Retigabine (TWIK1) | Effect of 10 μM of Retigabine (Kir3.3 (GIRK3))

Source: patent publication US6472165B1, “Modulatory binding site in potassium channels for screening and finding new active ingredients” (Arzneimittelwerk Dresden GmbH, priority 1999, dated 2002)
